From the supplement of paper PMC12823440, “Inhibitors supercharge kinase turnover through native proteolytic circuits” (Nature, 2025)
Where a name gives a salt, the structure may show the parent alone. This is one part of the list. Hit calls seldom repeat between salt and free forms of one compound.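 In K562 cells expressing nanoluciferase-fused kinases, luminescence was recorded at 4 h intervals between 2 and 18 h, normalized as percent of control with DMSO at 100% and a positive control at 0%. A significant (2 sigma) signal drop marks a time point as decreased. The authors' rule for a hit is not shown and takes in more than the number of time points.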

Amino acid sequences for entries named in this document (tags omitted). A change or cut given only in a name is not applied to a line headed by its entry.
UniProt Q15208: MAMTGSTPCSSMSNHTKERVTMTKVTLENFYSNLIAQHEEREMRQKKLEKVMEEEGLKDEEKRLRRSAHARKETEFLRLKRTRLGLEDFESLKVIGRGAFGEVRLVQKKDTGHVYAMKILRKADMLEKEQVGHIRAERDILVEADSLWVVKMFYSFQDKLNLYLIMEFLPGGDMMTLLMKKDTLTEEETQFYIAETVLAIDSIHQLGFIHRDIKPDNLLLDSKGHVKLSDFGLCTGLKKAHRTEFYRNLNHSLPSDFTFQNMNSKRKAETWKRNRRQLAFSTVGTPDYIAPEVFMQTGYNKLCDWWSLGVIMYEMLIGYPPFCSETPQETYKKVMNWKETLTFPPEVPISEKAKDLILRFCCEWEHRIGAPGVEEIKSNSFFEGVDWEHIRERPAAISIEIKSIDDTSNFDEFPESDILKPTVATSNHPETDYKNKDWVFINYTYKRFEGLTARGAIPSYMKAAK
UniProt P42680: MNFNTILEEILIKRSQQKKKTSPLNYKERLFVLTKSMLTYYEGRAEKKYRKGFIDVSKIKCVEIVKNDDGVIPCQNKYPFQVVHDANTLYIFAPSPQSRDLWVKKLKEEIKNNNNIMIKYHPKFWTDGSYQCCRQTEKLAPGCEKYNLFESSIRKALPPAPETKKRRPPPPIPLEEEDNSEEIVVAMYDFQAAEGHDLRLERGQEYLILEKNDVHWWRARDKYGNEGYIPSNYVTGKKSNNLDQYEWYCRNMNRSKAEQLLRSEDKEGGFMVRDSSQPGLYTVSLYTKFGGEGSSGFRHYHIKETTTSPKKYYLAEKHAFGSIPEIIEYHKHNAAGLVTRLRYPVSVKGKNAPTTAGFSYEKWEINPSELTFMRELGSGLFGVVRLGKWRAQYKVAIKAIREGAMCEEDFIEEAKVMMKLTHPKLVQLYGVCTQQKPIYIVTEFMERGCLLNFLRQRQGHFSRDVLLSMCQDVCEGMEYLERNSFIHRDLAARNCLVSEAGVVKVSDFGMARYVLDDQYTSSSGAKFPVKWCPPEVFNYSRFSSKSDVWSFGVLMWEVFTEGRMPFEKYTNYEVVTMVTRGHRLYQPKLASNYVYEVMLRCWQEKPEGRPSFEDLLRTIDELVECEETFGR
UniProt P29597: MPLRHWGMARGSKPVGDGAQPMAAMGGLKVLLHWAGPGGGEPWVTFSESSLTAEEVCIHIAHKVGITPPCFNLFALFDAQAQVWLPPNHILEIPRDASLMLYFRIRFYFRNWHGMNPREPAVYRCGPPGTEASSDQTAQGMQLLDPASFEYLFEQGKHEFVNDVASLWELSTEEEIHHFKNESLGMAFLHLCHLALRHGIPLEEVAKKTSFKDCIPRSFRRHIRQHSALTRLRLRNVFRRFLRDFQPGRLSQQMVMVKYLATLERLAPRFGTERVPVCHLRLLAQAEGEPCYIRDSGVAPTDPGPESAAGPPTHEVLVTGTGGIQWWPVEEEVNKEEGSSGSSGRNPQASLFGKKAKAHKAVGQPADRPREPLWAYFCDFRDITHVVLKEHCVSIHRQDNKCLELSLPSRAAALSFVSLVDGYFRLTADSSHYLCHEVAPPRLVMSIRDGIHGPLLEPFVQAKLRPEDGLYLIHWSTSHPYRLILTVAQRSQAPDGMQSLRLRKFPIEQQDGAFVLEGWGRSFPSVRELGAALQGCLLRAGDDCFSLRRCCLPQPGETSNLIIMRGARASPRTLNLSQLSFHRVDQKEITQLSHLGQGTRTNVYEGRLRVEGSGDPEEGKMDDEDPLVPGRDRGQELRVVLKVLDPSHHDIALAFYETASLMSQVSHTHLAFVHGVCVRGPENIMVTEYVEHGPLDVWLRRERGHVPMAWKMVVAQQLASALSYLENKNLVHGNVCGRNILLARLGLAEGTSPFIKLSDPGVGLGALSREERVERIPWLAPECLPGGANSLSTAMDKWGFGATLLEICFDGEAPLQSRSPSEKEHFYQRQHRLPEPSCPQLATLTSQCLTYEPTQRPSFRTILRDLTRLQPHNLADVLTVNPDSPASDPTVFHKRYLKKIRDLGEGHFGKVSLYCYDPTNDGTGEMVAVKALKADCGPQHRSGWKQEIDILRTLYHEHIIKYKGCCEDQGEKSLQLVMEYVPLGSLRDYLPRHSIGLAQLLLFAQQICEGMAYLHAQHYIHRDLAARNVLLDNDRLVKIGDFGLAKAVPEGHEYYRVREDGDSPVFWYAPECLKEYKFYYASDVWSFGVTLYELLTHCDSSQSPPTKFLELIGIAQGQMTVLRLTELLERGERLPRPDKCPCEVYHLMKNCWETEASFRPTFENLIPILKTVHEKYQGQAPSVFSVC
UniProt Q6PHR2: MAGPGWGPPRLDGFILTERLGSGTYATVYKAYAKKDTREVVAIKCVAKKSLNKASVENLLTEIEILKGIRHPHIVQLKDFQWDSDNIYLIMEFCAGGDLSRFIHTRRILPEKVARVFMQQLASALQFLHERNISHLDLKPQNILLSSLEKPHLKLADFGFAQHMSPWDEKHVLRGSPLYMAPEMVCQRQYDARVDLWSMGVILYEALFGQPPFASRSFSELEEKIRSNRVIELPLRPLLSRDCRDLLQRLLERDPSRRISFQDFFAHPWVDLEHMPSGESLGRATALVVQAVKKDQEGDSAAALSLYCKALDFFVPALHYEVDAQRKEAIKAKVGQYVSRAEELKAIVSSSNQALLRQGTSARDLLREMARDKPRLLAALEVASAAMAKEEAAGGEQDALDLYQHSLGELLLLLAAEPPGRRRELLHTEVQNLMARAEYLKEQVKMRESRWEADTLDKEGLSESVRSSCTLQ
UniProt P07947, whole entry, looked up: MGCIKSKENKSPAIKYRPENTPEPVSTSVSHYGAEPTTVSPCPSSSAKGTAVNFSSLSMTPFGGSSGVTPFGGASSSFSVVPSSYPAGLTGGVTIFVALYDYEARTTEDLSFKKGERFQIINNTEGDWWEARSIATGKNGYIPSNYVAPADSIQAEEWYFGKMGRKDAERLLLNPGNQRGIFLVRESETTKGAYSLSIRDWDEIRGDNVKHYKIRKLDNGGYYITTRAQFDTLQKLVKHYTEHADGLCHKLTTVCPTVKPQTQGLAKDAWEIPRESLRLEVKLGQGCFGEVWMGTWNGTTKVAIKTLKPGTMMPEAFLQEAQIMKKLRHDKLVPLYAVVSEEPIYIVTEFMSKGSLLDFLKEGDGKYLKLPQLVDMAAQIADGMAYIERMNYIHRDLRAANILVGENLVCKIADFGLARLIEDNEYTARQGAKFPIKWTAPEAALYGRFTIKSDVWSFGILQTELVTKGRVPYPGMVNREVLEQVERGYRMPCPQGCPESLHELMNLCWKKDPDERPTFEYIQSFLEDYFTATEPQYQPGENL
UniProt P43403: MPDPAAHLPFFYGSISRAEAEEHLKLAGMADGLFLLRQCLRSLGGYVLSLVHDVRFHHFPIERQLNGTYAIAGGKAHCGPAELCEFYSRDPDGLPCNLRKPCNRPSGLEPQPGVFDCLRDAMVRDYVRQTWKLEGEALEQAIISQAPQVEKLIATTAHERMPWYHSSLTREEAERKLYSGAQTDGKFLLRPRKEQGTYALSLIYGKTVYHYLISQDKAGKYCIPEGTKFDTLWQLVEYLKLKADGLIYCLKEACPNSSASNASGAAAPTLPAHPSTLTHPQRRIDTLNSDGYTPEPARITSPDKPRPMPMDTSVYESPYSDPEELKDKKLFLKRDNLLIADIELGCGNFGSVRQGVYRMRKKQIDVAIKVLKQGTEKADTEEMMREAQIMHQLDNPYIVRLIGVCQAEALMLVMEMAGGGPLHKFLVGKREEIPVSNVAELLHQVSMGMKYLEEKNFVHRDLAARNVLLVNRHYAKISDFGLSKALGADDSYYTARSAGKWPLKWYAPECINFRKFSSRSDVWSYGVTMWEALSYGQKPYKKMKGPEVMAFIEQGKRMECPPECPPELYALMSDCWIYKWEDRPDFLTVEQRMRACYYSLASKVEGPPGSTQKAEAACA
UniProt P00519, whole entry: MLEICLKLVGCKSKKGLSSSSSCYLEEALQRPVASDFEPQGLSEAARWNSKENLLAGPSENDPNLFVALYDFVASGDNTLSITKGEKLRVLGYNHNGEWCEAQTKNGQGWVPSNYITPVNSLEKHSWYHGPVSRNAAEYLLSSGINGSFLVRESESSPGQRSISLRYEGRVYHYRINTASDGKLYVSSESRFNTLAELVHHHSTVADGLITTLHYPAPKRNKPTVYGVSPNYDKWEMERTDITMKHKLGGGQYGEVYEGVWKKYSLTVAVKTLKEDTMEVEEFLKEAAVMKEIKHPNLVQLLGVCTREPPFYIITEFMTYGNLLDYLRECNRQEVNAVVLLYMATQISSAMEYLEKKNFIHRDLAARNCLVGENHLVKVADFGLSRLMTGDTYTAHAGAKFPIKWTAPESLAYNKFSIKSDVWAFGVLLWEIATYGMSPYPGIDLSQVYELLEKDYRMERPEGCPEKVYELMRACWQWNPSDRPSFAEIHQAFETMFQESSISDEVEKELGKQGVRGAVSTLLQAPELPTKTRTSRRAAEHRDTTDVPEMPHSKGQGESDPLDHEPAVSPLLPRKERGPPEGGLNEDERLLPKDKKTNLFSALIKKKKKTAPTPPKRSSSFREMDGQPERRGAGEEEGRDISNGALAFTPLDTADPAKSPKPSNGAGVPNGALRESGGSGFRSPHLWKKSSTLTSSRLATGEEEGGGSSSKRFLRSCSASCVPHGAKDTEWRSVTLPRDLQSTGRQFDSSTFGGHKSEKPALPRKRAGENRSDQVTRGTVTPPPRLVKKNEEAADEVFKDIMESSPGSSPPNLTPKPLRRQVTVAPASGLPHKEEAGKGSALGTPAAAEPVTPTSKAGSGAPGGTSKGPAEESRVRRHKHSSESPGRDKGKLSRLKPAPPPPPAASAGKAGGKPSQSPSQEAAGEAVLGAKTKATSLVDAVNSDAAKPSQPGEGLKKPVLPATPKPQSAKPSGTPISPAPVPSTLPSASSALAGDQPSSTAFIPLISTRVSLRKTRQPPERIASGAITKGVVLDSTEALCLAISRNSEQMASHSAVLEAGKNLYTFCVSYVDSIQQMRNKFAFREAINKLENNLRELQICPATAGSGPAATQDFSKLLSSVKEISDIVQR
UniProt P31749: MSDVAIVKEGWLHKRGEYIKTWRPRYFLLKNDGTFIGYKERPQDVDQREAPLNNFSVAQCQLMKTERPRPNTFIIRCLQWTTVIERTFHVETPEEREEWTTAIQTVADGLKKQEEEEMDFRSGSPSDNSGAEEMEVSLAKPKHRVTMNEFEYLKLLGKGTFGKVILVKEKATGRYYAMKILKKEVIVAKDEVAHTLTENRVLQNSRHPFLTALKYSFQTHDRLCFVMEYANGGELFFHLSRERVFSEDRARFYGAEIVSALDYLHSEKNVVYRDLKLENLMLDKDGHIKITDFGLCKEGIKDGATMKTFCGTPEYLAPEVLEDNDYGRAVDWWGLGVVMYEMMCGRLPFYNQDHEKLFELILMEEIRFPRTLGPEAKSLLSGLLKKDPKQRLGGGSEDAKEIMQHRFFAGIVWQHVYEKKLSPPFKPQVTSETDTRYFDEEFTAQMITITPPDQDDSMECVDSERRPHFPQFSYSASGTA

Assays:
Conditions in all cases: K562; 2-18 h
STK38 = STK38 (UniProt Q15208); experiment: kinase-Nluc reporter destabilization hit call (1 = scored as downregulated) (binary); higher = compound decreases kinase abundance
SYK = SYK (UniProt P43405); experiment: as above
TEC = TEC (UniProt P42680); experiment: as above
TYK2 = TYK2 (UniProt P29597); experiment: as above
ULK3 = ULK3 (UniProt Q6PHR2); experiment: as above
YES1 = YES1 (UniProt P07947); experiment: as above
ZAK = ZAK (UniProt Q9NYL2); experiment: as above
ZAP70 = ZAP70 (UniProt P43403); experiment: as above
ABL1 = ABL1 (UniProt P00519); experiment: number of time points (of 5) at which kinase-Nluc abundance scored as decreased, DMSO-normalised (count); higher = more persistent destabilization
AKT1 = AKT1 (UniProt P31749); experiment: as above

SMILES	kinase-Nluc reporter destabilization hit call (STK38)	kinase-Nluc reporter destabilization hit call (SYK)	kinase-Nluc reporter destabilization hit call (TEC)	kinase-Nluc reporter destabilization hit call (TYK2)	kinase-Nluc reporter destabilization hit call (ULK3)	kinase-Nluc reporter destabilization hit call (YES1)	kinase-Nluc reporter destabilization hit call (ZAK)	kinase-Nluc reporter destabilization hit call (ZAP70)	number of time points (ABL1)	number of time points (AKT1)
Cc1nn(CC(F)(F)F)cc1Nc1ncc(Br)c(NCc2ccc(S(N)(=O)=O)cc2)n1 (10 µM)	inactive: 0	inactive: 0	inactive: 0	inactive: 0	inactive: 0	inactive: 0	inactive: 0	inactive: 0	0	0
CC(C)Cn1ncc2cc(Oc3ccc(F)cc3F)c(C(=O)NCCN(C)C)cc21 [p38α inhibitor 1] (10 µM)	inactive: 0	inactive: 0	inactive: 0	inactive: 0	inactive: 0	inactive: 0	inactive: 0	inactive: 0	0	0
NC(=O)c1cnc(N[C@@H]2CCCC[C@@H]2N)nc1Nc1cccc(-n2nccn2)c1 (2.5 µM)	inactive: 0		inactive: 0	inactive: 0	inactive: 0	inactive: 0	inactive: 0	inactive: 0	0	0
CN(C)CCOc1cc(-c2cn[nH]c2)ccc1NC(=O)C1COc2ccccc2O1 (stereo not drawn) (10 µM)	inactive: 0	inactive: 0	inactive: 0	inactive: 0	inactive: 0	inactive: 0	inactive: 0	inactive: 0	0	0
C[C@H](Nc1cc2c(-c3ccc4c(c3)OCO4)noc2cn1)c1ccccc1 (10 µM)	inactive: 0	inactive: 0	inactive: 0	inactive: 0	inactive: 0	inactive: 0	inactive: 0	inactive: 0	0	0
N#Cc1cc(-c2ccnc(Nc3ccc(N4CCOCC4)cc3)n2)ccc1OC1CCOCC1 (10 µM)	inactive: 0	inactive: 0	inactive: 0	inactive: 0	inactive: 0	inactive: 0	inactive: 0	inactive: 0	0	0
CC(C)(Oc1ccc(Cl)cc1)C(=O)Nc1ccc(OCc2ccc(C#N)cc2)cc1 [AMPK activator 4] (10 µM)	inactive: 0	inactive: 0	inactive: 0	inactive: 0	inactive: 0	inactive: 0	inactive: 0	inactive: 0	0	0
COc1ccc(CCNCc2ccc(OCc3ccc(Cl)nc3)c(OC)c2)cc1OC [SBE13 (Hydrochloride)] (10 µM)	inactive: 0	inactive: 0	inactive: 0	inactive: 0	inactive: 0	inactive: 0	inactive: 0	inactive: 0	0	0
O=C(NC[C@H](O)CO)c1ccncc1Nc1ccc(I)cc1F [Pimasertib] (10 µM)	inactive: 0	inactive: 0	inactive: 0	inactive: 0	inactive: 0	inactive: 0	inactive: 0	inactive: 0	0	0
COc1cc2nnc(C(N)=O)c(Nc3ccc(C)cc3F)c2cc1N1CCN(CCO)CC1 (2.5 µM)	inactive: 0	inactive: 0	inactive: 0	inactive: 0	inactive: 0	inactive: 0	inactive: 0	inactive: 0	0	0
COc1cc2nccc(Nc3cccc(Oc4ccccc4)c3)c2cc1OC (2.5 µM)		inactive: 0	inactive: 0	inactive: 0	inactive: 0	inactive: 0	inactive: 0	inactive: 0	0	0
C=CC(=O)N1CCC(c2ccc(C(N)=O)c(-c3ccc(Oc4ccccc4)cc3)n2)CC1 [Orelabrutinib] (2.5 µM)	inactive: 0	inactive: 0	inactive: 0	inactive: 0	inactive: 0	inactive: 0	inactive: 0	inactive: 0	0	0
Nc1ccc(-c2nc3ccc(-c4nc5ccc(N)cc5[nH]4)cc3[nH]2)cc1 (10 µM)	inactive: 0	inactive: 0	inactive: 0	inactive: 0	inactive: 0	inactive: 0	inactive: 0	inactive: 0	0	0

Structural class: the compounds so far containing an NH in an aromatic ring (2)
SMILES	kinase-Nluc reporter destabilization hit call (STK38)	kinase-Nluc reporter destabilization hit call (SYK)	kinase-Nluc reporter destabilization hit call (TEC)	kinase-Nluc reporter destabilization hit call (TYK2)	kinase-Nluc reporter destabilization hit call (ULK3)	kinase-Nluc reporter destabilization hit call (YES1)	kinase-Nluc reporter destabilization hit call (ZAK)	kinase-Nluc reporter destabilization hit call (ZAP70)	number of time points (ABL1)	number of time points (AKT1)
CN(C)CCOc1cc(-c2cn[nH]c2)ccc1NC(=O)C1COc2ccccc2O1 (stereo not drawn) (10 µM)	inactive: 0	inactive: 0	inactive: 0	inactive: 0	inactive: 0	inactive: 0	inactive: 0	inactive: 0	0	0
Nc1ccc(-c2nc3ccc(-c4nc5ccc(N)cc5[nH]4)cc3[nH]2)cc1 (10 µM)	inactive: 0	inactive: 0	inactive: 0	inactive: 0	inactive: 0	inactive: 0	inactive: 0	inactive: 0	0	0
